From US20220064214A1, “NOVEL PEPTIDES AND USES THEREOF” (CENNA BIOSCIENCES INC., priority 2019, published 2022)
Some entries share one result that the patent states for a list of compounds. Square brackets hold non-standard residues; d marks the D form. Peptide text beside a SMILES is read from it.

Experiment: Pharmacokinetics study in rats, plasma
Assay type: in vivo
Conditions: rat, 10 mg/kg IV and SC
Description: An in-vivo study was carried out in rats to determine the pharmacokinetics (PK) of peptides P8, 8M1D and 8M2D in plasma and CSF. Each peptide was assessed through two dosage routes, intravenous (IV) and subcutaneous (SC). Three rats were assigned to each dose group with each peptide. Total of twelve rats per peptide were used.
Blood was collected through jugular vein cannulas, and the samples were collected into tubes with K2EDTA. After centrifuging at a temperature of 2 to 8° C. at 4,000×g for 5 minutes, the resulting plasma was split into equal aliquots, frozen, and stored at −60 to −80° C. One aliquot was for PK analysis and the other was for Aβ analysis (see Example 4).

CC(C)C[C@H](NC(=O)[C@H](CCC(=O)O)NC(=O)[C@H](CCC(=O)O)NC(=O)[C@H](CC(=O)O)NC(=O)[C@H](CCC(=O)O)NC(=O)[C@H](CCC(=O)O)NC(=O)[C@H](CCC(=O)O)NC(=O)[C@H](N)CC(=O)O)C(N)=O [8M1D, dEEEDEEL-NH2] (H-[dD]EEEDEEL-NH2)
time after dosing at which detectable in plasma: ≥ 6 h
